Primary screen of a compound library

From ChEMBL document CHEMBL3988442, “University of Dundee, Small-Polar-MMV Screening Library” (2021).

Mtb growth Cornell: 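Whole-cell assay for inhibitors of Mycobacterium tuberculosis growth, labelled Cornell in the record; the read-out is not stated. The concentration is filed as 10 mM, unlikely as a test dose, so the dose is not known. Higher means stronger inhibition (inferred from two other growth screens of the library). Size under these conditions: about 53,000 compounds, about 900 of them at 50% or above in at least one test.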
Mtb heat-shock: 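Assay on Mycobacterium tuberculosis, filed only as a heat shock assay from Cornell; the read-out is not stated. The concentration is filed as 10 mM, unlikely as a test dose, so the dose is not known. Direction is inferred from retests: higher values go with stronger inhibition. Size under these conditions: about 69,000 compounds, about 930 of them at 50% or above in at least one test.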

The filed quantity is “Percent Effect” (%).
The record does not define 0% and 100%; most values in the screen are far below 50% and negative numbers occur (in some assays of this library far below -100).
This is an unselected part of the compounds tested.

* Cc1cnc(NC(=O)N2CCCCCC2)s1 : Mtb growth Cornell: -27.03%; Mtb heat-shock: 20.91%
* c1cnc(N2CCCC3(CCN(Cc4ccncc4)C3)C2)nc1 (stereo not shown) : Mtb growth Cornell: -0.314%; Mtb heat-shock: -11.3%
* CCCC(C)N(C)Cc1nnc(-c2ccco2)o1 (stereo not shown) : Mtb heat-shock: 25.02%
* Cc1c(-c2n[nH]c3c2CN(CC2CCOC2)CC3)cccc1C(F)(F)F (stereo not shown) : Mtb growth Cornell: 15.23%; Mtb heat-shock: 6.55%
* O=C(N1CCC(Oc2ccncc2)C1)C1(c2ccccc2F)CC1 (stereo not shown) : Mtb growth Cornell: -4.417%; Mtb heat-shock: -23%
* Cc1cc(F)ccc1-n1cc(O)c(C(N)=O)n1 : Mtb growth Cornell: -50.1%; Mtb heat-shock: 2.973%
* CC(NCC(=O)NCC(=O)Nc1ccc(F)cc1)c1cccs1 (stereo not shown) : Mtb growth Cornell: -22.83%; Mtb heat-shock: -31.64%
* Cc1nc(C2CCCN2CCc2ccccn2)no1 (stereo not shown) : Mtb growth Cornell: 4.239%; Mtb heat-shock: -5.804%
* Cc1cc(S(=O)(=O)NCC2CNCCOC2)c(C)cc1Cl (stereo not shown) : Mtb growth Cornell: 27.73%; Mtb heat-shock: 4.808%
* CCc1nnc2n1CCN(c1nc3ccccc3o1)C2 : Mtb heat-shock: -14.61%
* Cc1cccc2c1ccn2CCC(=O)O : Mtb growth Cornell: -19.05%; Mtb heat-shock: -6.119%
* c1ccc(Cn2ccnc2CNCC2CCCN2c2cccnn2)cc1 (stereo not shown) : Mtb heat-shock: 2.544%
* CCn1nc(CC(C)C)cc1C(=O)N1CC[C@@H](O)C1 : Mtb growth Cornell: 14.67%; Mtb heat-shock: 0.3791%
* Cc1cc(C(C)NCCN2CCC(N(C)C)CC2)c(C)s1 (stereo not shown) : Mtb growth Cornell: -54.39%; Mtb heat-shock: -5.897%
* CS(=O)(=O)Cc1nc(CN2CC=C(c3ccccc3)CC2)cs1 : Mtb growth Cornell: 16.98%; Mtb heat-shock: -21.37%
* CC(=O)Nc1nc2c(s1)C1(CCCC1)Nc1ccccc1S2 : Mtb growth Cornell: -13.29%; Mtb heat-shock: -0.4612%
* Cc1ccc(N2CCCC(c3[nH]ncc3-c3ccccc3)C2)nn1 (stereo not shown) : Mtb growth Cornell: 3.645%; Mtb heat-shock: 14.22%
* CCn1cc(NC(=O)CCc2ccc3c(c2)OCCCO3)cn1 : Mtb growth Cornell: 15.19%; Mtb heat-shock: 18.77%
* Cc1csc(C2(NCc3nnc(-c4ccco4)o3)CCCC2)n1 : Mtb heat-shock: 2.403%
* O=C(c1ccnn1-c1ccc2ccccn12)N1CCCC1 : Mtb growth Cornell: 21.52%; Mtb heat-shock: 16.32%
* Cc1ccc(C(C(=O)O)N(C)CCCN2CCOCC2)c(C)c1 (stereo not shown) : Mtb growth Cornell: 17.79%; Mtb heat-shock: 10.8%
* CN1CCCC(CCCc2cccnc2)(C(N)=O)C1 (stereo not shown) : Mtb growth Cornell: 14.06%; Mtb heat-shock: -18.17%
* Cc1cc2ncc(CN(C)C)c(C3CCN(C)CC3)n2n1 : Mtb growth Cornell: -26.95%; Mtb heat-shock: -14.64%
* CCN(C)CC1CCN(c2ncc(Br)cn2)C1 (stereo not shown) : Mtb growth Cornell: 4.398%; Mtb heat-shock: -15.35%
* CCN1CCNC(=O)C12CCN(C(=O)c1ccccn1)CC2 : Mtb growth Cornell: -35.06%; Mtb heat-shock: -1.309%
* N#Cc1cccc(NC(=O)N[C@H](CO)Cc2ccc(O)cc2)c1 : Mtb heat-shock: -23.16%
* CCOc1ccc2[nH]c(=O)c(CN3CCC(n4cnnc4)CC3)cc2c1 : Mtb growth Cornell: -38.98%; Mtb heat-shock: 2.789%
* COc1c(C2CCCN2c2ncnc3c2CCC3)c(C)nn1C (stereo not shown) : Mtb heat-shock: -19.16%
* Cc1nn(C)cc1CN(C)C(=O)c1cnccn1 : Mtb growth Cornell: 11.07%; Mtb heat-shock: -2.189%
* Cc1nnsc1CN(C)C(=O)CCn1cnc2ccccc21 : Mtb growth Cornell: 0.7581%; Mtb heat-shock: 13.16%
* [H][C@]12CC[C@@]3(N=C(CC)NC3=O)[C@@]1([H])CN(C(=O)NCC1CCCCC1)C2 : Mtb growth Cornell: 19.52%; Mtb heat-shock: -13.42%
* Cc1nc(C)c(C(C)NCc2c(C(C)C)nn(C)c2N(C)C)s1 (stereo not shown) : Mtb growth Cornell: 21.22%; Mtb heat-shock: 16.41%
* Cc1noc(C)c1Cc1nc(N(C)C)no1 : Mtb growth Cornell: 2.244%; Mtb heat-shock: -3.75%
* CCn1cnnc1C1CCN(C(=O)c2cccc(-n3cccc3)c2)CC1 : Mtb growth Cornell: 9.51%; Mtb heat-shock: -6.228%
* Cc1cnc2n(c1=O)C(CC(=O)NCc1ccc(Cl)cc1)CS2 (stereo not shown) : Mtb growth Cornell: -0.1206%; Mtb heat-shock: 12.17%
* Cc1cc(F)ccc1N1CCC(N2C[C@@H](C)[C@@](C)(O)C2)CC1 : Mtb growth Cornell: 57.75%; Mtb heat-shock: 33.53%
* [H][C@@]12COC[C@]1(COCC1CC1)CN(C(=O)c1ccc(F)cc1C)C2 : Mtb growth Cornell: 24.76%; Mtb heat-shock: 12.13%